# Where “and” joins values, the source holds several entries; their conditions need not be identical. Equal entries are not always repeated. Hit rate of the full screen: of about 350,000 compounds, about 6,000 (1.7%) were called active. This list was built around the results that the source calls inconclusive (neither active nor inactive); the mix of calls is not that of the screen. Cut-off read from the data, not from the text of the source: active = CPE inhibition above about 20% (passing the limit was not always enough); inconclusive = no clear call, values can overlap the other calls; tested in BHK-21 cells.
# Experiment: protection of cells from dengue 2 killing – plate reader, single concentration, primary screen (AID 651640);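 note: 0% = median of neutral control wells and 100% = median of positive control wells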
# Conditions: DENV2-infected cells, cytopathic effect rescue, at 9.99 µM, hits give high values
row,SMILES,CPE inhibition
1,Cc1ccc(C2C(=O)c3ccccc3C2=O)cc1,inconclusive: 33.4%
2,C[C@@H]1CCCCO[C@H](CN(C)S(=O)(=O)c2cccs2)[C@@H](C)CN([C@@H](C)CO)C(=O)c2cc(NC(=O)CCC(F)(F)F)ccc2O1,inconclusive: 34.9%
3,CC(Sc1nc2cc(Cl)ccc2s1)C(=O)Nc1cccc(S(=O)(=O)N2CCOCC2)c1 (stereo not drawn),active: 32.9%
4,NC(COCc1ccccc1)c1csc(Nc2nncc3ccccc23)n1 (stereo not drawn),inconclusive: 28.2%
5,O=C(NCCCN1CCCC1=O)Nc1ccc(Cl)cc1Cl,inconclusive: 36.5%
6,COc1cccc(-c2ccc3n(c2=O)C[C@H]2[C@H](CO)[C@@H](C(=O)NCCN4CCCCC4)N(C)[C@@H]32)c1,inactive: -0.994%
7,COC(=O)NNC(=O)C12CC3CC(CC(C3)C1)C2,inconclusive: 20.3%
8,COc1cccc(NC(=O)CN(C)C(=O)Cn2[nH]c(=O)c3ccccc3c2=O)c1,inconclusive: 34.2%
9,Cc1ccccc1C(N)c1ccncc1 (stereo not drawn),inconclusive: 23.6%
10,C[C@@H]1CN([C@@H](C)CO)C(=O)Cc2cc(NC(=O)c3ccncc3)ccc2O[C@H]1CN(C)Cc1ccc(C(=O)Nc2ccccc2N)cc1,active: 72%
11,CN(C)C(=O)c1cccc(-c2ccc3c(c2)[C@@H]2[C@@H](CCN2C(=O)Cc2ccncc2)[C@@H](CO)N3)c1,active: 104%
12,CC1CCN(S(=O)(=O)c2cn(C)c(=O)n(C)c2=O)CC1,inconclusive: 58.2%
13,C[C@@H]1CN([C@@H](C)CO)C(=O)c2ccccc2-c2ccccc2CO[C@@H]1CN(C)S(=O)(=O)c1ccc(Cl)cc1,inconclusive: 46.2%
14,O=C(C[C@H]1C[C@H]2c3cc(NC(=O)C4CCC4)ccc3O[C@H]2[C@@H](CO)O1)NCc1cc(F)ccc1F,inconclusive: 40.3%
15,CC1(C)CC(NC(=O)COc2ccccc2Cl)CC(C)(C)N1,active: 32.5%
16,CC(C)c1ccc(S(=O)(=O)N2CCN(CC(=O)Nc3ccc(Cl)cc3F)CC2)cc1,inactive: -6.46%
17,C[C@H](CO)N1C[C@H](C)[C@H](CN(C)S(=O)(=O)c2ccc(Cl)cc2)OCCCC[C@H](C)Oc2ccc(NC(=O)CCCN(C)C)cc2C1=O,active: 21.4%
18,C[C@@H]1CN([C@H](C)CO)C(=O)CCCn2cc(nn2)CO[C@H]1CN(C)S(=O)(=O)c1ccccc1,inconclusive: 73.9%
19,CCOC(=O)c1cccc(NC(=O)CCOc2ccccc2)c1,inactive: -0.064%
20,O=C1Nc2ccccc2SC1c1ccccc1 (stereo not drawn),active: 25%
21,OCCN1CNC(=S)NC1,inactive: 0.557%
22,CCC(=O)N(C)C[C@@H]1Oc2cc(C#CCC(C)C)ccc2S(=O)(=O)N([C@@H](C)CO)C[C@@H]1C,inactive: 2.1%
23,CCCN(C)C[C@H]1OCCCC[C@@H](C)Oc2ccc(NC(=O)Nc3ccc(OC)cc3)cc2C(=O)N([C@H](C)CO)C[C@@H]1C,inactive: 9.71%
24,CC(=O)Nc1ccc2c(c1)C(=O)N(C)[C@@H]1CC[C@H](CC(=O)N3CCc4ccccc4C3)O[C@@H]1CO2,inactive: -0.809%
25,CCN(CC)S(=O)(=O)c1cccc(C(=O)c2c(C)cc3ccccn23)c1,inactive: 7.24%

row,SMILES,CPE inhibition
1,CC(C)NC(=O)Nc1ccc2c(c1)C(=O)N([C@@H](C)CO)C[C@@H](C)[C@@H](CN(C)S(=O)(=O)c1ccc(F)cc1)OCCCC[C@@H](C)O2,inactive: 1.9%
2,Cc1c(NC(=O)c2noc(C(C)C)c2[N+](=O)[O-])c(=O)n(-c2ccccc2)n1C,inconclusive: 26.7%
3,Cc1noc(C)c1S(=O)(=O)Nc1ccc2c(c1)C(=O)N([C@H](C)CO)C[C@H](C)[C@@H](CN(C)C(=O)Nc1ccccc1)OCCCC[C@@H](C)O2,inactive: -6.38%
4,CCOc1ccc2nc(NC(=O)CCn3cccc3)sc2c1,inconclusive: 48.2%
5,C[C@H](CO)N1C[C@H](C)[C@@H](CN(C)Cc2cccnc2)Oc2cc(C#CCN(C)C)ccc2S1(=O)=O,inconclusive: 23.3%
6,C[C@H](NC(=O)C[C@@H]1CC[C@H]2[C@@H](COC[C@H](O)CN2C(=O)Nc2ccccc2)O1)c1ccccc1,active: 30.5%
7,Cc1ccc(C)c(S(=O)(=O)NCc2ccc3c(c2)OCO3)c1,inconclusive: 38.3%
8,COc1nccnc1NS(=O)(=O)c1ccc(NC(=S)NC(=O)/C=C/c2ccc(F)cc2)cc1,inconclusive: 34.8%
9,Cc1ccc(S(=O)(=O)NCCC(=O)NC2CCN(Cc3ccccc3)CC2)cc1,inconclusive: 47.6%
10,CCN(C(=O)COC(=O)c1ccc(Br)o1)C1CCCCC1,inconclusive: 30.1%
11,COc1ccc(C)cc1N(CC(=O)Nc1ccc(S(=O)(=O)N2CCOCC2)cc1)S(C)(=O)=O,active: 24.4%
12,COCC(=O)N(C)C[C@@H]1Oc2cc(-c3ccc(F)cc3)ccc2S(=O)(=O)N([C@H](C)CO)C[C@H]1C,inactive: -4.04% and inactive: -2.82% and inactive: -11.3%
13,CCC1CCCCN1CCCNC(=O)c1ccc2c(c1)c(C)c(C)n2CC (stereo not drawn),inconclusive: 20.7%
14,O=C(c1ccccc1)N1CCN(c2ccccc2)CC1,inconclusive: 28.7%
15,O=C(O)C/C(=C\c1cc2c(cc1Br)OCO2)c1nc2ccccc2s1,inconclusive: 45.5%
16,CNC[C@H]1OCCCC[C@H](C)Oc2ccc(NC(=O)C3CCCCC3)cc2C(=O)N([C@@H](C)CO)C[C@@H]1C,inconclusive: 38.8%
17,O=C(O)c1cc([N+](=O)[O-])c(NCc2cccnc2)c([N+](=O)[O-])c1,inconclusive: 34.7%
18,CCC(=O)Nc1ccc2c(c1)C(=O)N(C)C[C@@H](OC)[C@H](C)CN(C(=O)c1cnccn1)[C@@H](C)CO2,inactive: -1.84%
19,COc1cc(OC)c2c(C)cc(=O)oc2c1C(CCN1CCOCC1)c1ccc(N(C)C)cc1 (stereo not drawn),inconclusive: 67.2%
20,O=C(/C=C/c1ccc(O)cc1)c1ccc(NC2=C(N3CCCCC3)C(=O)c3ccccc3C2=O)cc1,inconclusive: 22.8%
21,O=C(NCC(=O)N1CCN(c2ccccc2)CC1)c1ccc(Cl)cc1,inconclusive: 26.5%
22,CCC(=O)N1[C@@H](CO)[C@@H](c2ccccc2)C12CN(C(=O)Nc1cccc(OC)c1)C2,inactive: -9.48%
23,CC(C)NC(=O)N[C@@H]1CC[C@H](CC(=O)O)O[C@H]1CO,inconclusive: 34.8%
24,O=C(Cc1ccccc1)N1C[C@@H]2[C@H](c3ccccc31)[C@@H](CO)N2C(=O)C1CC1,inactive: -0.201%
25,Cc1ccc(CNS(=O)(=O)c2ccc3c(c2)C(C)(C)C(=O)N3C)cc1,inconclusive: 38.4%

row,SMILES,CPE inhibition
1,COc1ccc(OS(=O)(=O)Cc2ccccc2)cc1,inactive: -8.83%
2,Cc1ccc(OC(C)C(=O)Nc2ncc(Cl)cc2Cl)c([N+](=O)[O-])n1 (stereo not drawn),inconclusive: 31.2%
3,CC1CC(C)CN(C(=O)COC(=O)Cc2ccc(Br)cc2)C1 (stereo not drawn),inactive: 1.51%
4,COc1ccccc1CCNC(=O)C(=O)NCC1OCCN1S(=O)(=O)c1cc(F)ccc1F (stereo not drawn),inconclusive: 25.3%
5,COc1ccc(NC(=O)N[C@H]2CC[C@@H](CC(=O)NCc3ccccn3)O[C@H]2CO)cc1,inconclusive: 22.2%
6,Cc1c(O)c(C)c2c(c1O)C(=O)C[C@@H](c1ccccc1)O2,inconclusive: 48.8%
7,O=C(CCN1C(=O)c2ccccc2S1(=O)=O)Nc1ccccc1O,inconclusive: 32.3%
8,CN(C)Cc1cn(CC[C@H]2CC[C@H](NC(=O)Nc3ccccc3F)[C@H](CO)O2)nn1,inconclusive: 26.7%
9,CNC[C@@H]1OCCCC[C@@H](C)Oc2ccc(NS(=O)(=O)c3ccccc3)cc2C(=O)N([C@H](C)CO)C[C@H]1C,inconclusive: 83.9%
10,O=C(C[C@H]1CC[C@@H](NC(=O)C2CCOCC2)[C@H](CO)O1)NCc1ccncc1,inactive: 16.7%
11,COc1cc(OC)cc(C(=O)N[C@H](C(=O)NCCc2ccc(S(N)(=O)=O)cc2)C(C)C)c1,inconclusive: 20.8%
12,Cc1ccc([C@@H]2C[C@H]3[C@@H](CN2S(=O)(=O)c2ccc(C)cc2)C(=O)C[C@@H](c2ccccc2F)N3S(=O)(=O)c2ccc(C)cc2)cc1,inconclusive: 54.4%
13,CCN(CC)S(=O)(=O)c1ccc(-c2nnc3sc4cccc(C)c4n23)cc1,inconclusive: 48.8%
14,Cc1ccc(S(=O)(=O)NC[C@H]2CC[C@H]3[C@H](CN3Cc3ccccc3C(=O)O)O2)cc1,inactive: 1.42%
15,CC(C)c1cccc(C(C)C)c1NC(=O)CCl,inactive: 16%
16,C(C#CCN1CCOCC1)#CCN1CCOCC1,inconclusive: 34.2%
17,O=C(C[C@@H]1C=C[C@H](NC(=O)c2cccc(F)c2)[C@H](CO)O1)Nc1nccs1,inconclusive: 37.4%
18,CCC(=O)N1C[C@H]2[C@@H](c3ccccc31)[C@@H](CO)N2C(=O)Nc1ccccc1,inconclusive: 27.2%
19,COC(=O)[C@@H]1[C@@H](CO)[C@@H]2Cn3c(cccc3=O)[C@@H]2N1C(=O)C1CCCC1,inconclusive: 56.1%
20,CCOC(=O)N(C)c1c(CC)nc2c(OCc3ccc(C(F)(F)F)cc3)cccn12,inactive: 5.48%
21,COc1ccc(C(C(=O)NC2CCCC2)N2CCc3ccccc32)cc1 (stereo not drawn),active: 57%
22,C[C@@H]1CCCCO[C@H](CN(C)CC2CC2)[C@H](C)CN([C@@H](C)CO)C(=O)c2cc(NC(=O)Nc3cccc4ccccc34)ccc2O1,inactive: -2.94%
23,CC(C)NC(=O)N1[C@H](CO)[C@@H](c2ccccc2)[C@@H]1CNC(=O)CN(C)C,inconclusive: 22.1%

# At a glance, four of the compounds above:
row,SMILES,CPE inhibition
7,O=C(CCN1C(=O)c2ccccc2S1(=O)=O)Nc1ccccc1O,inconclusive: 32.3%
8,CN(C)Cc1cn(CC[C@H]2CC[C@H](NC(=O)Nc3ccccc3F)[C@H](CO)O2)nn1,inconclusive: 26.7%
9,CNC[C@@H]1OCCCC[C@@H](C)Oc2ccc(NS(=O)(=O)c3ccccc3)cc2C(=O)N([C@H](C)CO)C[C@H]1C,inconclusive: 83.9%
10,O=C(C[C@H]1CC[C@@H](NC(=O)C2CCOCC2)[C@H](CO)O1)NCc1ccncc1,inactive: 16.7%

# Reference: PubChem BioAssay AID651640 (Broad Institute, 2012)
